Here are results for two molecules from PMC6624258.

By UniProt entry, the sequences of proteins in these tests, tags left out.
UniProt O88382: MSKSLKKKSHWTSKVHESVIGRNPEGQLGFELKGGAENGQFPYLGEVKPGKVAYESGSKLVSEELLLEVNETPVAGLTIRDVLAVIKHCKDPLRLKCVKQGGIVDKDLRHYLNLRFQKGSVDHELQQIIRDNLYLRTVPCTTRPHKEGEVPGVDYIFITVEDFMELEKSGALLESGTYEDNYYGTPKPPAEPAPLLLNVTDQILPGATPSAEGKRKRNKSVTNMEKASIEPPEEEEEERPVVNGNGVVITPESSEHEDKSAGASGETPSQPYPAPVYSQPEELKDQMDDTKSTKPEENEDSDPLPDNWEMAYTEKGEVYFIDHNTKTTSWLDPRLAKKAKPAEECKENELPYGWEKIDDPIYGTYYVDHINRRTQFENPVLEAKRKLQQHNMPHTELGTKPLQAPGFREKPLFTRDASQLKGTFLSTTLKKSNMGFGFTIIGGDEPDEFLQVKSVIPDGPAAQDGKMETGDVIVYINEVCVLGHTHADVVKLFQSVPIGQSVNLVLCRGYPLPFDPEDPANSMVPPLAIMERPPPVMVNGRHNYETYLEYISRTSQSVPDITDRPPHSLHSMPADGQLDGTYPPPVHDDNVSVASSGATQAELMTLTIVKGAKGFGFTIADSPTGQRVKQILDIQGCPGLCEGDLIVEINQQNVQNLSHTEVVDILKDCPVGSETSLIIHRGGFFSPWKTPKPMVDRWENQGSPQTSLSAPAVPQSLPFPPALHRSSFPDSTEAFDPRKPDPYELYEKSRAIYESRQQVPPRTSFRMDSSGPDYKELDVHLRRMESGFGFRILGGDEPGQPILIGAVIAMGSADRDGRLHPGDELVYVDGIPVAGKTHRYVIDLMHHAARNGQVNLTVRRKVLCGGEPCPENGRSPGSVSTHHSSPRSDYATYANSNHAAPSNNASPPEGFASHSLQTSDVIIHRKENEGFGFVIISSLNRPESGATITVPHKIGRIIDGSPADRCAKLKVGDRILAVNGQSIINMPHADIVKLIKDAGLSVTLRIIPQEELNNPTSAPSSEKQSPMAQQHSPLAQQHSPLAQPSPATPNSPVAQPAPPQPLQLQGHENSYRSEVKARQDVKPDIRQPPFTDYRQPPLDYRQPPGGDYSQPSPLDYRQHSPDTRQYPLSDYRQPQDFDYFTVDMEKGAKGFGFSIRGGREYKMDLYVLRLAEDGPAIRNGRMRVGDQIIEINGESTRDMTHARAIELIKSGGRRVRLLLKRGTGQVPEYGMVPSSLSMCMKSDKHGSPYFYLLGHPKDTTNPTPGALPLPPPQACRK
UniProt Q9EQG6: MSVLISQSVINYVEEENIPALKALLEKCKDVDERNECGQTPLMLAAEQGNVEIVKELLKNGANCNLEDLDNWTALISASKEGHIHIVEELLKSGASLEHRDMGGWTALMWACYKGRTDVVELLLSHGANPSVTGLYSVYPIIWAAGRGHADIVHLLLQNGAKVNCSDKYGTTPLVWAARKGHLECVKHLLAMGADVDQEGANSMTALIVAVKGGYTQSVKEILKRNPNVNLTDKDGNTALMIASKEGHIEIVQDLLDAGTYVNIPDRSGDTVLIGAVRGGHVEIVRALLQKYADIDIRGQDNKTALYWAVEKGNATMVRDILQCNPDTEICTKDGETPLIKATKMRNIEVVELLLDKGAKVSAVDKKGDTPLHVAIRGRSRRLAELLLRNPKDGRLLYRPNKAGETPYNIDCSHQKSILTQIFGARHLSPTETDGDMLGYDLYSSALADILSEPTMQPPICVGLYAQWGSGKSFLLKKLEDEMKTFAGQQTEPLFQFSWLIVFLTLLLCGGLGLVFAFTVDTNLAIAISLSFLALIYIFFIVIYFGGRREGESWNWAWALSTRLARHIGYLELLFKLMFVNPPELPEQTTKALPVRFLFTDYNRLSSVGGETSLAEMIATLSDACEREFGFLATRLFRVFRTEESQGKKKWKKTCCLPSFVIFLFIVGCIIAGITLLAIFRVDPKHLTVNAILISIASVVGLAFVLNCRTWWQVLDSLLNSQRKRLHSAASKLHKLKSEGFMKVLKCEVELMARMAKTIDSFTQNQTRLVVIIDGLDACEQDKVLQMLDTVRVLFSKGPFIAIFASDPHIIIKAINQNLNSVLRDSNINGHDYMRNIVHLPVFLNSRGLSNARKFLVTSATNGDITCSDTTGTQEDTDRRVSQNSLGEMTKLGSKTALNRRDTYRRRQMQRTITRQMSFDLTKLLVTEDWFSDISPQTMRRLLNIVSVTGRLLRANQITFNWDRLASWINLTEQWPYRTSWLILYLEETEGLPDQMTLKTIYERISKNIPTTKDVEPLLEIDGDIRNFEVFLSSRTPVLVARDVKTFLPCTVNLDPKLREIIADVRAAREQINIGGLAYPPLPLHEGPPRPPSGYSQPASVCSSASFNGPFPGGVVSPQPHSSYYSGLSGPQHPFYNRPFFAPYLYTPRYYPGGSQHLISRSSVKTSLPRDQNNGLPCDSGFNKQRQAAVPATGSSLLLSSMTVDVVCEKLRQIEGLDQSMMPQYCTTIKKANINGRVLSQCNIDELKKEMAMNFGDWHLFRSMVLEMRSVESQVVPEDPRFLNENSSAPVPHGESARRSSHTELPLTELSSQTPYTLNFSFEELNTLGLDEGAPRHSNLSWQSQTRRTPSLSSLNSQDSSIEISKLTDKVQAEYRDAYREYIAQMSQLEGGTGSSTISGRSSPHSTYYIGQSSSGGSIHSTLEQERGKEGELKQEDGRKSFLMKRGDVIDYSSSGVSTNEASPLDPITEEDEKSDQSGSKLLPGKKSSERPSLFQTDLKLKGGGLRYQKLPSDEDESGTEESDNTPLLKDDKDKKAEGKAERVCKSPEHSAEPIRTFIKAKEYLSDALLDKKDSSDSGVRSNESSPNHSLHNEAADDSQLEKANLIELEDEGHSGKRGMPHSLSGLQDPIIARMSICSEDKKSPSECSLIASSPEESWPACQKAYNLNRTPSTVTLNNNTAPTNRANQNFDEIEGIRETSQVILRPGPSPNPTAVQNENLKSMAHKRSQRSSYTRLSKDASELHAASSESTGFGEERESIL

The assay deals with S-SCAM (rat (endogenous in primary cortical neurons)) (UniProt O88382). Nature of the assay: co-IP; S-SCAM immunoprecipitated from lysates of untreated or 1 h NMDA-treated (100 µM NMDA, 10 µM glycine) rat cortical neurons; immunocomplexes analysed by immunoblot. A general note: In western blotting, separated proteins are transferred to a membrane and probed.

No constants are given. Whether binding was seen depends on the method and setting. In cells and extracts the contact can be indirect. Some binding calls cover weakened binding; strength is not graded here.

Turning to “Kinase D-interacting substrate of 220 kDa (Kidins220) (from UniProt Q9EQG6 1-1762)”, the binding entry is reported as “binds”.

B1: PDZ-GEF1 (protein, UniProt F1M386 1-1496)
chain: MKPLAAPANHGVLGQQEKQSLPADFTKLHLTDSLHPQVTHVSSSHSGCSITSDSGSSSLSDIYQATESEAGDMDLSGLPETAVDSEDDDDEEDIERASDPLMSRDIVRDCLEKDPIDRTDDDIEQLLEFMHQLPAFANMTMSVRRELCAVMVFAVVERAGTIVLNDGEELDSWSVILNGSVEVTYPDGKAEILCMGNSFGVSPTMDKEYMKGVMRTKVDDCQFVCIAQQDYCRILNQVEKNMQKVEEEGEIVMVKEHRELDRTGTRKGHIVIKGTSERLTMHLVEEHSVVDPTFIEDFLLTYRTFLSSPMEVGKKLLEWFNDPSLRDKVTRVVLLWVNNHFNDFEGDPAMTRFLEEFENNLEREKMGGHLRLLNIACAAKAKRRSMTLTKPSREAPLPFILLGGSEKGFGIFVDSVDSSSKATEAGLKRGDQILEVNGQNFENIQLSKAMEILRNNTHLSITVKTNLFVFKELLTRLSEEKRNGAPHLPKIGDIKKASRYSIPDLAVDVEQVIGLEKVNKKSKANTVGGRNKLKKILDKTRISILPQKPYNDIGIGQSQDDSIVGLRQTKHIPAALPVSGTLSSSNPDLLQSHHRILDFSTTPDLPDQVLRVFKADQQSRYIMISKDTTAKEVVIQAIREFAVTATPEQYSLCEVSVTPEGVIKQRRLPDQLSKLADRIQLSGRYYLKNNMETETLCSDEDAQELLRESQISLLQLSTVEVATQLSMRNFELFRNIEPTEYIDDLFKLKSKTSCANLKKFEEVINQETFWVASEILRETNQLKRMKIIKHFIKIALHCRECKNFNSMFAIISGLNLAPVARLRTTWEKLPNKYEKLFQDLQDLFDPSRNMAKYRNVLSGQNLQPPVIPLFPVIKKDLTFLHEGNDSKVDGLVNFEKLRMIAKEIRHVGRMASVNMDPALMFRTRKKKWRSLGSLSQGSANATVLDVAQTGGHKKRVRRSSFLNAKKLYEDAQMARKVKQYLSNLELEMDEESLQTLSLQCEPATSTLPKNPADRKPVKSETSPVAPRAGPQQKAQPQQPLAPPQPSHKVSQGLQVPAVSLYPSRKKVPVKDLPPFGINSPQALKKILSLSEEGSLERHRKQAEDTISNASSQLSSPPTSPQSSPRKGYALALSGTVDNFSDSGHSEISSRSSIVSNSSFDSVPVSLHDERRQRHSVSIVESNLGVGRMERRTLMEPDQYSLGSYAPVSESRGLYAAATVISSPSTEELSHDQGDRASLDAADSGRGSWTSCSSGSHDNIQTIQHQRSWETLPFGHTHFDYSGDATGIWASGGHMDQIMFSDHSTKYNRQNQSRESLEQAQSRASWASSTGYWGEDSEGDTGTIKRRGGKDVSTEAESSSMVPVTTEEAKPVPMPAHIAVTPSTTKGLIARKEGRYREPPPTPPGYVGIPIADFPEGPCHPARKPPDYNVALQRSRMVARPTEAPAPGQTPPAATASRPGSKPQWHKPSDADPRLAPFQPQGFAGAEEDEDEQVSAV
B1: the binding entry is listed as “binds”.
